# Assay results from doi:10.1101/573675.
# The exact form of at least one protein or probe is not confirmed. A negative result means that nothing was seen under these conditions.
# Test system: NaERF2-like (Nicotiana attenuata)
# Assay: EMSA
# Conditions: 300 ng protein, 30 ng labeled probe
row,Sequence,binding result
1,TAGATTAATTAATTCTACT (double strand) [EM13 mutant],no binding
2,TAGATTATCTAATTCTACT (double strand) [EM13],binds
